From US9981897B2, “Ethers of bis(hydroxymethyl)cyclohexanes” (BASF SE, priority 2011, dated 2018)

Experiment: odor (sensory properties) of the substances
Details: odor impression in words
Source text: The substances according to the present invention have in particular advantageous sensory properties, in particular odor.
Thus, substances according to the invention have the following odors:
Intensive odor impressions are to be understood as meaning those properties of aroma chemicals which permit a precise perception even in very low gas-space concentrations. The intensity can be ascertained via a threshold-value determination. A threshold value is the concentration of a substance in the relevant gas space at which an odor impression can just still be perceived by a representative test panel, although it no longer has to be defined. The substance class known as probably one of the most odor-intensive, i.e. those with very low threshold values, are thiols, whose threshold value is in the ppb/cbm range. It is the aim of the search for new aroma chemicals to find substances with the lowest possible threshold value in order to permit the lowest possible use concentration. The closer one comes to this target, the more one talks of “intensive” odor substances or aroma chemicals.
“Advantageous sensory properties” is a hedonic expression which describes the niceness and preciseness of an odor impression conveyed by an aroma chemical.
“Niceness” and “preciseness” are terms which are familiar to the person skilled in the art, a perfumer. Niceness generally refers to a spontaneously brought about, positively perceived, pleasant sensory impression. […] “Nice” can also describe the odor of musk or sandalwood.
“Preciseness” generally refers to a spontaneously brought about sensory impression which—for the same test panel—brings about a reproducibly identical reminder of something specific.

SMILES | odor | odor (listed as trans-1,4-bis(ethoxymethyl)cyclohexane)
CCOCC1CCC(CO)CC1 (stereo not drawn) [monoethyl ether of 1,4-bis(hydroxymethyl)cyclohexane, reference compound] | odorless | 
CCOC[C@H]1CC[C@H](COCC)CC1 [Compound I-trans, Trans-1,4-Cyclohexanedimethanol Diethyl Ether] | weak, low-intensity odor towards green, coumarin, very slight ozone-like smell | low-intensity odor
